Data: article doi:10.1101/2021.04.08.438850

T1: Pof8, myc-tagged (S. pombe) (UniProt O13795)
T1 sequence: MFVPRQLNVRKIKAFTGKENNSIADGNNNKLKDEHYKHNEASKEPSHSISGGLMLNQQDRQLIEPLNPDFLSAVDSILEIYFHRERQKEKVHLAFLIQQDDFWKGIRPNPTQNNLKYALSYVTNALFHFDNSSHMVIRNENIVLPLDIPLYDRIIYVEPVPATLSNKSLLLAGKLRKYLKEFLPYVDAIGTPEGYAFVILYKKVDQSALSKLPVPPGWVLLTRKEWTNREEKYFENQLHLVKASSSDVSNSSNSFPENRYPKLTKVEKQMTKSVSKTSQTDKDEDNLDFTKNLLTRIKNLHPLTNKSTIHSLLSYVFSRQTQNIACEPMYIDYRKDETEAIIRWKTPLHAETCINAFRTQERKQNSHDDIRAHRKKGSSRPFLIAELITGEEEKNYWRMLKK


Tests used:
Assay in all cases: co-IP
[1] = target: T1, Pof8, myc-tagged (S. pombe)
[2] = target: Bin3 (methyl phosphate capping enzyme homolog), protein A-tagged (S. pombe)
[3] = target: Bin3 (methyl phosphate capping enzyme homolog), protein A-tagged (S. pombe); remark: listed apart in the source

binding [1]	binding [2]	binding [3]	Molecule
binds	–	–	Bin3 (methyl phosphate capping enzyme homolog), protein A-tagged (S. pombe)
–	binds	binds	Pof8, myc-tagged (protein, UniProt O13795 1-402) MFVPRQLNVRKIKAFTGKENNSIADGNNNKLKDEHYKHNEASKEPSHSISGGLMLNQQDRQLIEPLNPDFLSAVDSILEIYFHRERQKEKVHLAFLIQQDDFWKGIRPNPTQNNLKYALSYVTNALFHFDNSSHMVIRNENIVLPLDIPLYDRIIYVEPVPATLSNKSLLLAGKLRKYLKEFLPYVDAIGTPEGYAFVILYKKVDQSALSKLPVPPGWVLLTRKEWTNREEKYFENQLHLVKASSSDVSNSSNSFPENRYPKLTKVEKQMTKSVSKTSQTDKDEDNLDFTKNLLTRIKNLHPLTNKSTIHSLLSYVFSRQTQNIACEPMYIDYRKDETEAIIRWKTPLHAETCINAFRTQERKQNSHDDIRAHRKKGSSRPFLIAELITGEEEKNYWRMLKK

Read-outs that look alike come from different tables or passages of the source. No constants are given. Whether binding was seen depends on the method and setting. In cells and extracts the contact can be indirect. Binding calls can cover weak binding; strength is not graded here. Sequences can lack the tags named with a protein.
